Article PMC11448502, “Cryo-EM structures of the human P2X1 receptor reveal subtype-specific architecture and antagonism by supramolecular ligand-binding” (Nature Communications, 2024)
The source gives many values for each of these; only a part stands here.

Molecular target: T1, hP2X1 N184A (Homo sapiens, UniProt P51575, N184A)
T1 construct: hP2X1 mRNA that was made from linearized full-length wild-type or mutant pcDNA 3.1x; expressed in transfected cells; host or cells: Xenopus laevis oocytes (mRNA injection)
T1 sequence (P51575 1-399 N184A): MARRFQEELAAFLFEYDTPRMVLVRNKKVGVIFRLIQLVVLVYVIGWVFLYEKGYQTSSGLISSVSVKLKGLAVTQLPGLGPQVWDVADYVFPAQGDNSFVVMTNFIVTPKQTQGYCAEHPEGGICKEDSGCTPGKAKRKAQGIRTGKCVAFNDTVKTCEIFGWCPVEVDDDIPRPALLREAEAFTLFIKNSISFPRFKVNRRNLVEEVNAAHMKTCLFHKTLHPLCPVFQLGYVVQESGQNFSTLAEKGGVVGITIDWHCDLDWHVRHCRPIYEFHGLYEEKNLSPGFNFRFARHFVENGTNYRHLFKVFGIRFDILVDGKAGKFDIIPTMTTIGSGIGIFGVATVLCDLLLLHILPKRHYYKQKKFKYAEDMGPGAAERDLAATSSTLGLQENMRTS
Experiment: NF449 inhibition dose response (IC50), TEVC in oocytes
Assay type: cell-based
Conditions: [NF449] 1.600E-09 M
Experimental: Oocytes were purchased defolliculated from Ecocyte Bioscience in Barth’s Solution (88 mM NaCl, 1 mM KCl, 0.82 mM MgSO4, 0.33 mM Ca(NO3)2, 0.41 mM CaCl2, 2.4 mM NaHCO3, 5 mM Tris-HCl) supplemented with penicillin (100 U/mL) and streptomycin (100 µg/mL). Xenopus laevis oocytes were then injected with 50 nL of 100 ng/μL hP2X1 mRNA that was made from linearized full-length wild-type or mutant pcDNA 3.1x according to the protocol provided in the mMessage mMachine kit (Invitrogen). Injected oocytes were allowed to express for ~20 hours at 18 °C before recording was performed.
Data acquisition was performed using the Oocyte Clamp OC-725C amplifier and pClamp 8.2 software. Buffers were applied using a gravity fed RSC-200 Rapid Solution Changer that flows at ~5 mL/min. All experiments use Sutter filamented glass 10 cm in length with an inner diameter of 0.69 mm and an outer diameter of 1.2 mm to impale oocytes and clamp the holding voltage at −60 mV. Experiments were recorded in buffer containing 10 mM HEPES (pH 7.4), 140 mM NaCl, 5 mM KCl, 2 mM CaCl2, 2 mM MgCl2, and 10 mM glucose.
To test a dilution series of an antagonist at discrete concentrations, 10 µM ATP (2 mM ATP for K309A only) was first applied to evoke an initial maximum current. […]

O=C(Nc1cc(C(=O)Nc2ccc(S(=O)(=O)O)cc2S(=O)(=O)O)cc(C(=O)Nc2ccc(S(=O)(=O)O)cc2S(=O)(=O)O)c1)Nc1cc(C(=O)Nc2ccc(S(=O)(=O)O)cc2S(=O)(=O)O)cc(C(=O)Nc2ccc(S(=O)(=O)O)cc2S(=O)(=O)O)c1 [NF449, 4,4’,4”,4’’’-(carbonylbis(imino-5,1,3-benzenetriylbis(carbonylimino)))tetrakis-benzene-1,3-disulfonic acid]
Normalized Current: 0.5685
